Data reported in article PMC11603163.
No constants are given. Whether binding was seen depends on the method and setting. In cells and extracts the contact can be indirect. These calls come from enrichment with a bait or labelling near it, and not all partners need be listed. For some of these results: No binding means not detected with the bait. For some of these results: Sequences can lack the tags named with a protein.

Chains of the proteins cited; added tags and fusions are not shown.
UniProt Q9LQ02: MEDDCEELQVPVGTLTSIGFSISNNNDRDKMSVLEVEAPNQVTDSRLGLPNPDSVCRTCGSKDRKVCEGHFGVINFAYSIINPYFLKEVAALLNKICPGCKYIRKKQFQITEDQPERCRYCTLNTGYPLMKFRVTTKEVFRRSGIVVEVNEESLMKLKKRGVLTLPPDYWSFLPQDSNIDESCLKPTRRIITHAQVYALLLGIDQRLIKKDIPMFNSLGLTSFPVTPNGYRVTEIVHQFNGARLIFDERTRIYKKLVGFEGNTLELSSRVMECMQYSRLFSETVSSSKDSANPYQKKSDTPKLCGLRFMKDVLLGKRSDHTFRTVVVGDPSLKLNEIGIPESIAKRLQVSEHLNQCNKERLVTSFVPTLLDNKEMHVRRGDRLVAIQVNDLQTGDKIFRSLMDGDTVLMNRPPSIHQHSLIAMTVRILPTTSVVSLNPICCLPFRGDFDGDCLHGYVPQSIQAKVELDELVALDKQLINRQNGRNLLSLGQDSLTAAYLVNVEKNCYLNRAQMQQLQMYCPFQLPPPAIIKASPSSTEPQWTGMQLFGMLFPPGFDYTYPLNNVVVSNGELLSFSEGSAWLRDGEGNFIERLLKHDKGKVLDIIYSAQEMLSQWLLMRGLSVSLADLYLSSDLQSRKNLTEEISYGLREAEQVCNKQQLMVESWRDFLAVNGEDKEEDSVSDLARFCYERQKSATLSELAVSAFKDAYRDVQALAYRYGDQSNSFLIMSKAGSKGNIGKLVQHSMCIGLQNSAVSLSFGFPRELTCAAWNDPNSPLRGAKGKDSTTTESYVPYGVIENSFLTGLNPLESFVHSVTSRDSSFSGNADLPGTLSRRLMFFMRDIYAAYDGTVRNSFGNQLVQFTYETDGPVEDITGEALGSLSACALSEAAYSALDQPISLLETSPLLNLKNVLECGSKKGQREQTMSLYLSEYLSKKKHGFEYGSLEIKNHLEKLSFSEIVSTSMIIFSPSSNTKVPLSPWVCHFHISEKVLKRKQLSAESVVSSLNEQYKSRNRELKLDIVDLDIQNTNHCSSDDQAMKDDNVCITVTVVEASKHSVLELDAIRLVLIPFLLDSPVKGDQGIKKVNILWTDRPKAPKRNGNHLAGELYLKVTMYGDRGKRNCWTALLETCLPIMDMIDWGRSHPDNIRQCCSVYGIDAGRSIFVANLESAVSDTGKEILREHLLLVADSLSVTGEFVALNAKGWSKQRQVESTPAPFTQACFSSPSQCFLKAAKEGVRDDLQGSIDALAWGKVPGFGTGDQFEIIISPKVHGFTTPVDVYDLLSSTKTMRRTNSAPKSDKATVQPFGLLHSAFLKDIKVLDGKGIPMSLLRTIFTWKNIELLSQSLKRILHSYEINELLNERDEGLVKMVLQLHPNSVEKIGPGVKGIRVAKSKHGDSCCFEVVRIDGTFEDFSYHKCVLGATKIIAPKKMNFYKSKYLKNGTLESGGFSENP

Experiments:
[1] = molecular target: T1, 3xF-tagged CLSY3 (Arabidopsis) (UniProt F4I8S3); assay: affinity purification with mass spectrometry; anti-Flag M2 magnetic beads on 10 g flowers of 3xF-tagged CLSY lines in their clsy mutant backgrounds; elution with 3x-FLAG peptide; compared to non-transgenic wild-type controls
T1 sequence: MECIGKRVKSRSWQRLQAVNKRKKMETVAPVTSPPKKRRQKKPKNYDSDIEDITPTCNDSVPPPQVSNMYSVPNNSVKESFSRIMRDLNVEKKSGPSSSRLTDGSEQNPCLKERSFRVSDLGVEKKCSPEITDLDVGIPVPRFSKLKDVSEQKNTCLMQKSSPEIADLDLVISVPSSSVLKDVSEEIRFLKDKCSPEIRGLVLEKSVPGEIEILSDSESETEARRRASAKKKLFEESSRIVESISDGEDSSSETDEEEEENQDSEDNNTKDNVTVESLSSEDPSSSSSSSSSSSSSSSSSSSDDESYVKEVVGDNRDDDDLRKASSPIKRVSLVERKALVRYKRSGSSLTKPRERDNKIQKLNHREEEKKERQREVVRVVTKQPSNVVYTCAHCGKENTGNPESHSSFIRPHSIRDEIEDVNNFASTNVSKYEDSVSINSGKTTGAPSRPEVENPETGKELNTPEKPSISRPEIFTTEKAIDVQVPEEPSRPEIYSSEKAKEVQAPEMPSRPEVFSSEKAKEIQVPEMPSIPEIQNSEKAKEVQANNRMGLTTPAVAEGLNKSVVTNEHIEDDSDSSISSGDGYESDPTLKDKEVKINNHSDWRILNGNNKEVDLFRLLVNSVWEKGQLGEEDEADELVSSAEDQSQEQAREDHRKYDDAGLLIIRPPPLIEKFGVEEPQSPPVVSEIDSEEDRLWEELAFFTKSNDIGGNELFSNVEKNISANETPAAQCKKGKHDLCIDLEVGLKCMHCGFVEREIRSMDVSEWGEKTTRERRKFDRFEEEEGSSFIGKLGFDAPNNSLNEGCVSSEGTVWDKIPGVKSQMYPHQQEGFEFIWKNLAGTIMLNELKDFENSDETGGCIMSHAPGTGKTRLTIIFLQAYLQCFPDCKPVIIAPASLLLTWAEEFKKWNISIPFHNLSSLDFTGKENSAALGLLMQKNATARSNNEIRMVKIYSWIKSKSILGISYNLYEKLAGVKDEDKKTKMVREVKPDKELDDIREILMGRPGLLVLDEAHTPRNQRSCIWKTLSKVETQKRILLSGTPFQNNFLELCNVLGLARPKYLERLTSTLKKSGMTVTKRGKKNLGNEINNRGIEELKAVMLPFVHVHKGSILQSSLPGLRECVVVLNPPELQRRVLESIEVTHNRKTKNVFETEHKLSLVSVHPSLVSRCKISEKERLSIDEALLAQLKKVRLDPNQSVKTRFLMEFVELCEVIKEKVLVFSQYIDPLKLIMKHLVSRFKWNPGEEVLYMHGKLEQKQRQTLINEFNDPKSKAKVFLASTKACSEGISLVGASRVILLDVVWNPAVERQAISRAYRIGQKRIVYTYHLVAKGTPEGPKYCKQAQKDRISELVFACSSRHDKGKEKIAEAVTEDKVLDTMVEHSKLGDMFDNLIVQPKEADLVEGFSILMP

[2] = molecular target: T2, 3xF-tagged CLSY1 (Arabidopsis) (UniProt Q9M297); assay: as above
T2 sequence: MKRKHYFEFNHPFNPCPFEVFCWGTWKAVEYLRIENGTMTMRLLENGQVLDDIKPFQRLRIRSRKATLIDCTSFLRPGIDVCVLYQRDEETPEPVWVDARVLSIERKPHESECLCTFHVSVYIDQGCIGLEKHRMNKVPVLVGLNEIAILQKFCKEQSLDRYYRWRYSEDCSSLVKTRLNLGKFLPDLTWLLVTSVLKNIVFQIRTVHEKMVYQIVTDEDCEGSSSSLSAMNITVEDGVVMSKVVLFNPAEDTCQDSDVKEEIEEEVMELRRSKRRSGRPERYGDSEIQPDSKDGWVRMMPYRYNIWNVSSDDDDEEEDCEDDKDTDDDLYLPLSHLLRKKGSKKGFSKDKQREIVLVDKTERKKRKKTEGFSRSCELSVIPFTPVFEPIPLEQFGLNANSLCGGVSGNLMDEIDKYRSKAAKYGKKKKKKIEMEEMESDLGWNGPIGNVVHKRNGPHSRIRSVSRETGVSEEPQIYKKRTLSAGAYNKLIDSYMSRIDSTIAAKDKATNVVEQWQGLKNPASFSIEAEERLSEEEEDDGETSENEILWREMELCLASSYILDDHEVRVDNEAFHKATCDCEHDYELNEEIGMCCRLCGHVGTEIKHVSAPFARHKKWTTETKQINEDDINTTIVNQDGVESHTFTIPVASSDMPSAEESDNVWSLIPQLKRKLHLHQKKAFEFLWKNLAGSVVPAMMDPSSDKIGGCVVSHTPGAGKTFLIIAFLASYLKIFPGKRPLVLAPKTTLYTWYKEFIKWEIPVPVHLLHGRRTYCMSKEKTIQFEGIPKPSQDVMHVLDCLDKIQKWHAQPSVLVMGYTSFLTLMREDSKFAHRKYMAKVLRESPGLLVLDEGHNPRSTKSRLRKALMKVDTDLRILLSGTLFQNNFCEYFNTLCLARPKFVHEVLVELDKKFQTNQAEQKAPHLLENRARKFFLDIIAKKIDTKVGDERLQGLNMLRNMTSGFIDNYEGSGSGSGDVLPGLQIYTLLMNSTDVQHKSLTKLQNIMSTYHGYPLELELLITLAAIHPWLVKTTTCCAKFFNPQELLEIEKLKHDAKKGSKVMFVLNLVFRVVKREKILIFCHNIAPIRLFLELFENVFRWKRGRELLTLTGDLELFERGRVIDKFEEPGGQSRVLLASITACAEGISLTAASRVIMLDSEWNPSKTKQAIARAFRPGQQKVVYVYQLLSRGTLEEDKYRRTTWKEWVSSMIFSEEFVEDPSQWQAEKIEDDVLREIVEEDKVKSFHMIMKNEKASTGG

[3] = molecular target: NRPD1-3xFWT (Arabidopsis) (UniProt Q9LQ02); assay: affinity purification with mass spectrometry; anti-FLAG magnetic beads (uMACS DYKDDDK kit) on flower extracts of nrpd1-3 T2 lines with NRPD1-3xF WT, AAA-YPMF or CYC-AAAA; three lines, two replicates each; LC-MS/MS spectral counts
[4] = molecular target: T3, 3xHA-CLSY1 (Arabidopsis) (UniProt Q9M297); assay: affinity purification with mass spectrometry; anti-HA IP (uMACS HA kit) of 3xHA-CLSY1 from flowers of nrpd1-3 lines with NRPD1-3xF WT or AAA-YPMF; LC-MS/MS
T3 sequence: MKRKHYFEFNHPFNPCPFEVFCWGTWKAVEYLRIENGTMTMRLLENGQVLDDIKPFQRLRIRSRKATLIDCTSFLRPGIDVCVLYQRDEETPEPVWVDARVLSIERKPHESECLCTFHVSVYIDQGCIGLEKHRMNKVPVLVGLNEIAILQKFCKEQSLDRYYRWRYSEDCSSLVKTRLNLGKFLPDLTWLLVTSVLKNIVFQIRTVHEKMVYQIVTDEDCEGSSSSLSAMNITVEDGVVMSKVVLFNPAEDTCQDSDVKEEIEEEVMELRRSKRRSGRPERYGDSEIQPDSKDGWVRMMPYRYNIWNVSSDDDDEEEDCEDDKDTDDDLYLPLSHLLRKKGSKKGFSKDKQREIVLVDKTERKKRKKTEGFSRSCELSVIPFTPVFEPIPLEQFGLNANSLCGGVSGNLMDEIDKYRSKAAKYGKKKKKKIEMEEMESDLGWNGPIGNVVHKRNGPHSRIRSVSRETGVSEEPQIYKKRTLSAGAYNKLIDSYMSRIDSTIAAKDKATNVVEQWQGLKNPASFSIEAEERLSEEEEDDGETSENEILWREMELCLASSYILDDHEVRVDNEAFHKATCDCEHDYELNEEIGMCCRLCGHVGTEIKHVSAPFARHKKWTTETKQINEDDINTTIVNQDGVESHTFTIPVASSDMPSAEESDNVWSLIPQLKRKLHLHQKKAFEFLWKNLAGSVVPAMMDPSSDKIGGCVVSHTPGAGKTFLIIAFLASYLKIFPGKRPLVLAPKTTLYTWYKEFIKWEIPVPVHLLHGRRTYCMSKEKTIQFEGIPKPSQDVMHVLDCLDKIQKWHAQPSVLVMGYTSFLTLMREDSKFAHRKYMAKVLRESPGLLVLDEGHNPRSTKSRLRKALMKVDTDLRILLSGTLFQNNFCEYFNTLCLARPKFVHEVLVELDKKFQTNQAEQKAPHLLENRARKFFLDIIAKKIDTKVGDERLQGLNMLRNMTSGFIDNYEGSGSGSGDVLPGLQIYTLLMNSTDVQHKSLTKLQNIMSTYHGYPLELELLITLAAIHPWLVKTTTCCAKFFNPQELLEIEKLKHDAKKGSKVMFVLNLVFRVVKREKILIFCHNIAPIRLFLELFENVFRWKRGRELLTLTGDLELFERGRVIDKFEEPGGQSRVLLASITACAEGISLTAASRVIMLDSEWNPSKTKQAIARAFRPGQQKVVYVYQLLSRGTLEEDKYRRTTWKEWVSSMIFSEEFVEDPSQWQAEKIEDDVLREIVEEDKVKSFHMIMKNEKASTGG

binding [1]: no binding
binding [2]: no binding
binding [3]: binds
binding [4]: no binding
B1: CLASSY 4 (CLSY4) (protein, UniProt Q9LK10 1-1132)
chain: MDMTSCVARRTRSRTESYLNSILNKSKGISGEEEDQSLGCVNSRTEKRRVNMRDACSPSPRKKKRRRRKDDDDDVVFVRTEYPEGKRDDENVGSTSGNLQSKSFDFGDRVCDFDADDRNLGCEEKASNFNPIDDDDDVVFVGTVQRENDHVEDDDNVGSASVISPRVCDFDEDDAKVSGKENPLSPDDDDDVVFLGTIAGENQHVEDVNAGSEVCDILLDDANLRGEEKTYVSDEVVSLSSSSDDEEDPLEELGTDSREEVSGEDRDSGESDMDEDANDSDSSDYVGESSDSSDVESSDSDFVCSEDEEGGTRDDATCEKNPSEKVYHHKKSRTFRRKHNFDVINLLAKSMLESKDVFKEDIFSWDKIAEVDSREDPVVRESSSEKVNEHGKPRERRSFHRVREKNHLNGESFYGGEKLCDGEETINYSTEDSPPLNLRFGCEEPVLIEKTEEEKELDSLWEDMNVALTLEGMHSSTPDKNGDMLCSKGTHDFVLDDEIGLKCVHCAYVAVEIKDISPAMDKYRPSVNDNKKCSDRKGDPLPNRLEFDASDPSSFVAPLDNIEGTVWQYVPGIKDTLYPHQQEGFEFIWKNLAGTTKINELNSVGVKGSGGCIISHKAGTGKTRLTVVFLQSYLKRFPNSHPMVIAPATLMRTWEDEVRKWNVNIPFYNMNSLQLSGYEDAEAVSRLEGNRHHNSIRMVKLVSWWKQKSILGISYPLYEKLAANKNTEGMQVFRRMLVELPGLLVLDEGHTPRNQSSLIWKVLTEVRTEKRIFLSGTLFQNNFKELSNVLCLARPADKDTISSRIHELSKCSQEGEHGRVNEENRIVDLKAMIAHFVHVHEGTILQESLPGLRDCVVVLNPPFQQKKILDRIDTSQNTFEFEHKLSAVSVHPSLYLCCNPTKKEDLVIGPATLGTLKRLRLKYEEGVKTKFLIDFIRISGTVKEKVLVYSQYIDTLKLIMEQLIAECDWTEGEQILLMHGKVEQRDRQHMIDNFNKPDSGSKVLLASTKACSEGISLVGASRVVILDVVWNPSVESQAISRAFRIGQKRAVFIYHLMVKDTSEWNKYCKQSEKHRISELVFSSTNEKDKPINNEVVSKDRILDEMVRHEKLKHIFEKILYHPKKSDMNTSFF
